PubChem BioAssay AID1053208, Peter MacCallum Cancer Centre | 2014
Here is an unselected part of about 17,000 reagents tested. Of all reagents, 788 (4.7%) got an active call. 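Calls rest on z-score classes alone; an extra cut-off of viability at most 70% of control was not applied to them.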

Test: 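Genes whose silencing cuts survival of bone tumour cells only with doxorubicin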 (primary screen)
Cell system: mouse osteosarcoma cells, early-passage culture from an engineered mouse model of fibroblastic bone tumour
Reagent: siRNA pool against mouse genes, 40 nM
Timing: about 120 h (48 h before drug, then 72 h with drug)
Treatment: doxorubicin 100 nM for 72 h, roughly 30-40% inhibitory dose
Measured: 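Viability read as ATP luminescence after 72 h of 100 nM doxorubicin or none, duplicate wells averaged, scaled to non-targeting siRNA, then expressed as robust z-scores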
Scale: viability z-score with doxorubicin and doxorubicin viability vs non-targeting: higher = more viable cells under doxorubicin; viability z-score without drug: higher = more viable cells with knock-down alone; z-score of drug to no-drug ratio: higher = less drug sensitisation by knock-down
Active means: 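Called active if knock-down leaves viability unchanged without drug (z within -2 to 2) but lowers it with doxorubicin (z at or under -2)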

| target gene | combined z-score class | viability z-score with doxorubicin | viability z-score without drug | z-score of drug to no-drug ratio | doxorubicin viability vs non-targeting | activity call |
| --- | --- | --- | --- | --- | --- | --- |
| Eif3c | low cell count with and without drug | -6.41 | -9.61 | -0.11 | 0.37 | inactive |
| Oxld1 | no change with or without drug | -0.56 | 0.84 | -1.01 | 0.89 | inactive |
| Hspa4 | no change with or without drug | -0.56 | 0.51 | -0.79 | 0.89 | inactive |
| Plcl2 | no change with or without drug | -0.67 | 0.17 | -0.67 | 0.88 | inactive |
| Fhip2a | no change with or without drug | 0.9 | -0.17 | 1.24 | 1.02 | inactive |
| Gabrg2 | no change with or without drug | 0.67 | 0.17 | 0.67 | 1 | inactive |
| 9930014A18Rik | no change with or without drug | 0.34 | 0.84 | -0.11 | 0.97 | inactive |
| Clca3a2 | no change with or without drug | -1.91 | -1.01 | -1.24 | 0.77 | inactive |
| Or51ai2 | no change with or without drug | 1.12 | 0 | 1.24 | 1.04 | inactive |
| Tmt1a | no change with or without drug | -0.45 | 0.17 | -0.45 | 0.9 | inactive |
| Acer3 | no change with or without drug | -1.35 | -0.51 | -1.01 | 0.82 | inactive |
| Col17a1 | no change with or without drug | 0.9 | -0.84 | 1.69 | 1.02 | inactive |
| Oxt | high cell count with and without drug | 2.14 | 2.36 | 0.67 | 1.13 | inactive |
| Tcea3 | no change with or without drug | 0 | 1.69 | -0.9 | 0.94 | inactive |
| Mapkap1 | no change with or without drug | 0.45 | -1.85 | 2.14 | 0.98 | inactive |
| Repin1 | no change with or without drug | -0.34 | 0.34 | -0.45 | 0.91 | inactive |
| Ankra2 | no change with or without drug | -0.22 | 0.51 | -0.45 | 0.92 | inactive |
| Or1q1 | no change with or without drug | -0.9 | -0.84 | -0.22 | 0.86 | inactive |
| Exoc3l4 | no change with or without drug | 0 | 1.01 | -0.56 | 0.94 | inactive |
| Zfp768 | high cell count without drug only | 1.12 | 2.19 | -0.22 | 1.04 | inactive |
| Pcdh1 | no change with or without drug | -0.34 | -0.51 | 0.11 | 0.91 | inactive |
| Cst7 | no change with or without drug | 1.57 | 0.51 | 1.35 | 1.08 | inactive |
| Zfp709 | no change with or without drug | 1.01 | 0.17 | 1.01 | 1.03 | inactive |
| Slc9a7 | no change with or without drug | 0.34 | 0.34 | 0.22 | 0.97 | inactive |
| Rps12 | low cell count with and without drug | -5.62 | -5.06 | -3.37 | 0.44 | inactive |

As entered above:
Value of Acer3 in “z-score of drug to no-drug ratio”: -1.01
Under “z-score of drug to no-drug ratio”, Zfp709 reads 1.01
Result of Clca3a2 in “viability z-score with doxorubicin”: -1.91
For “viability z-score without drug”, Oxt has 2.36
For “doxorubicin viability vs non-targeting”, Mapkap1 reads 0.98
Ankra2, viability z-score with doxorubicin → -0.22

The listing continues.
| target gene | combined z-score class | viability z-score with doxorubicin | viability z-score without drug | z-score of drug to no-drug ratio | doxorubicin viability vs non-targeting | activity call |
| --- | --- | --- | --- | --- | --- | --- |
| Dbnl | no change with or without drug | 0 | -0.34 | 0.34 | 0.94 | inactive |
| Cd2ap | no change with or without drug | 1.91 | 0.84 | 1.46 | 1.11 | inactive |
| Klrb1f | no change with or without drug | -0.9 | -1.01 | -0.11 | 0.86 | inactive |
| Msh2 | no change with or without drug | 0.45 | -0.17 | 0.67 | 0.98 | inactive |
| Xrcc5 | no change with or without drug | 0.67 | 0.51 | 0.45 | 1 | inactive |
| Flvcr1 | no change with or without drug | -1.24 | -1.18 | -0.45 | 0.83 | inactive |
| Fkbp1a | no change with or without drug | 0.56 | -1.18 | 1.57 | 0.99 | inactive |
| A730018C14Rik | no change with or without drug | 1.24 | 1.18 | 0.56 | 1.05 | inactive |
| Shtn1 | low cell count with doxorubicin only | -3.48 | -0.17 | -3.48 | 0.63 | active |
| Arid5a | no change with or without drug | 0.67 | 1.01 | 0.11 | 1 | inactive |
| Cmc1 | no change with or without drug | -1.12 | 0 | -1.12 | 0.84 | inactive |
| Or5p54 | no change with or without drug | -0.11 | 0.17 | -0.11 | 0.93 | inactive |
| Acss2 | no change with or without drug | 0.67 | -1.69 | 2.25 | 1 | inactive |
| Fiz1 | no change with or without drug | -0.45 | -0.51 | 0 | 0.9 | inactive |
| Klf6 | no change with or without drug | 0.67 | 0.34 | 0.56 | 1 | inactive |
| Ociad1 | no change with or without drug | -0.67 | 0.17 | -0.67 | 0.88 | inactive |
| Ier3ip1 | no change with or without drug | -0.22 | 0.51 | -0.45 | 0.92 | inactive |
| Mrpl47 | no change with or without drug | 0.9 | -0.84 | 1.69 | 1.02 | inactive |
| Aqp12 | no change with or without drug | 0.67 | 0.17 | 0.67 | 1 | inactive |
| Trim12a | high cell count with doxorubicin only | 2.81 | 1.52 | 1.8 | 1.19 | inactive |
| Cilk1 | no change with or without drug | 1.8 | 1.18 | 1.12 | 1.1 | inactive |
| Or52n4 | no change with or without drug | 0 | -0.84 | 0.67 | 0.94 | inactive |
| Tex13a | no change with or without drug | 0 | 0.17 | 0 | 0.94 | inactive |
| Cdk2 | no change with or without drug | 0 | -0.84 | 0.67 | 0.94 | inactive |
| Klk1b4 | no change with or without drug | -1.57 | -0.51 | -1.24 | 0.8 | inactive |
| Plek | no change with or without drug | 0.22 | -1.52 | 1.57 | 0.96 | inactive |
| Mei1 | no change with or without drug | 1.69 | 1.18 | 1.01 | 1.09 | inactive |
| Sri | high cell count with doxorubicin only | 2.14 | 1.18 | 1.46 | 1.13 | inactive |
| Ccdc88a | no change with or without drug | 0.56 | -0.17 | 0.79 | 0.99 | inactive |
| Impdh1 | no change with or without drug | 0 | 1.18 | -0.67 | 0.94 | inactive |
| Akap8 | no change with or without drug | 1.46 | -0.51 | 2.02 | 1.07 | inactive |
| Fam216b | no change with or without drug | -0.45 | 0.17 | -0.45 | 0.9 | inactive |
| Tonsl | no change with or without drug | -1.12 | -1.52 | 0 | 0.84 | inactive |
| Or8d1 | no change with or without drug | 0.9 | 0.84 | 0.45 | 1.02 | inactive |
| Slc6a13 | no change with or without drug | 0.67 | 1.52 | -0.22 | 1 | inactive |
| Mast2 | no change with or without drug | 1.35 | 0.67 | 1.01 | 1.06 | inactive |
| Pirb | low cell count with doxorubicin only | -3.37 | -0.51 | -3.15 | 0.64 | active |
| Timm50 | no change with or without drug | 1.24 | 1.69 | 0.22 | 1.05 | inactive |
